We go through three molecules from article PMC9579038.

Test [1] deals with T1, FLAG-IRTKS (full-length IRTKS, BAIAP2L1) (human) (UniProt Q9UHR4).
T1 sequence: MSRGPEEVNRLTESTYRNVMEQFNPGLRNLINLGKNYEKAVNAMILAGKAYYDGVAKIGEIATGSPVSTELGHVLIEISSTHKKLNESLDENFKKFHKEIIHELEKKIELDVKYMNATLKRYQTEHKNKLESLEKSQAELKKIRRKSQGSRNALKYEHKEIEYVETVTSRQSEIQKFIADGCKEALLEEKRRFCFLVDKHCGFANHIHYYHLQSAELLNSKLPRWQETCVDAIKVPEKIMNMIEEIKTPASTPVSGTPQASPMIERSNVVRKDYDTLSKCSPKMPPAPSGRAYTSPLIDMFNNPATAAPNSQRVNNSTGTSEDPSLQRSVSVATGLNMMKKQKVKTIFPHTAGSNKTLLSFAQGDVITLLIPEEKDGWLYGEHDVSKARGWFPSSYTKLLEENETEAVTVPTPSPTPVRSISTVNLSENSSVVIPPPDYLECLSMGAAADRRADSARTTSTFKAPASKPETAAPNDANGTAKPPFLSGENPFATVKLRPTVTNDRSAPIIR
Kind of test: co-IP; coexpressed in transfected cells; FLAG bait immunoprecipitated with anti-DYKDDDDK agarose beads, 2 h at 4 °C; co-IP buffer 50 mM Tris pH 7.0, 150 mM NaCl, 1 mM EDTA, 5 mM NaF, 0.5% Triton X-100; BirA*-tagged prey detected by immunoblot. A general note: A western blot detects proteins with antibodies after separation by electrophoresis.

Test [2] addresses FMNL2-mCherry (human). Kind of test: co-IP; coexpressed in transfected cells; mCherry bait immunoprecipitated with RFP-Trap beads, 2 h at 4 °C; co-IP buffer 50 mM Tris pH 7.0, 150 mM NaCl, 1 mM EDTA, 5 mM NaF, 0.5% Triton X-100; prey detected by immunoblot for its epitope tag.

No constants are given. Whether binding was seen depends on the method and setting. In cells and extracts the contact can be indirect. A result given as binding can be weak or reduced; the word gives no strength. Where a sequence is shown, tags or fusion partners need not be part of it.

Take FMNL2.I705A-BirA* (human): the binding result in test [1] was “binds”.

For FMNL2.G2A-BirA* (human), the binding result in test [1] is reported as “binds”.

B1: FLAG-IRTKS (full-length IRTKS, BAIAP2L1) (protein, UniProt Q9UHR4 1-511)
chain: T1 sequence
Consider B1, for which the binding result in test [2] is reported as “binds”.
